Assay: Odor descriptors given by a panel of expert perfumers

SMILES	Odor Descriptor (Table 9)	Odor Descriptor (Table 11)	Odor Descriptor (Table 13)	Odor Descriptor 1 (Table 15)	Odor Descriptor 2 (Table 15)	Odor Descriptor 1 (Table 17)	Odor Descriptor 2 (Table 17)	Odor Descriptor 1 (Table 19)	Odor Descriptor 2 (Table 19)
C=CC(C)(O)CCC=C(C)CC (mixture of isomers) [ETHYL LINALOOL]	CITRUS	CITRUS	CITRUS	CITRUS	FLORAL	MUGUET	CITRUS	CITRUS	FLORAL
CC1=CCC(C=CC(C)C(C)O)C1(C)C (stereo in doubt) [EBANOL]	SANDALWOOD	SANDALWOOD	SANDALWOOD						
CCCCCCCCCCC=O [ALDEHYDE C11]			CITRUS						
CCCCCCCCCCCC=O [ALDEHYDE C12 (DODECANAL), DODECANAL]				ALDEHYDIC	FATTY/GREASY	ALDEHYDIC	FATTY/GREASY	ALDEHYDIC	FATTY/GREASY
CCCCCCCC=O [ALDEHYDE C 8 (OCTANAL), OCTANAL]				ALDEHYDIC	CITRUS	ALDEHYDIC	CITRUS	ALDEHYDIC	CITRUS
CCCCCCCCCC=O [ALDEHYDE C 10 (DECANAL), DECANAL]				ALDEHYDIC	ORANGE	ALDEHYDIC	ORANGE	ALDEHYDIC	CITRUS
C=CCOC(=O)CCC1CCCCC1 [ALLYL CYCLOHXYL PROPIONATE, ALLYL CYCLOHEXYL PROPIONATE]	FRUITY	FRUITY	FRUITY						
CCOC(=O)CC1(C)OCCO1 [APPLINAL]	APPLE	FRUITY	FRUITY						
CCCCC/C=C\CCC=O [CIS 4 DECENAL]				ALDEHYDIC	CARDAMOM	ALDEHYDIC	CARDAMOM	ALDEHYDIC	CARDAMOM
CC/C=C\CCOC(C)=O [CIS-3-HEXENYL ACETATE]	GREEN	GREEN	GREEN	GRASS	FRUITY	GRASS	FRUITY	GRASS	FRUITY
CC/C=C\CCOC(=O)c1ccccc1O [CIS-3-HEXENYL SALICYLATE]	GREEN	FLORAL	FLORAL	GRASS	SALICYLATE	GRASS	SALICYLATE	GRASS	SALICYLATE
CC(C)=CCCC(C)=CC=O [CITRAL]		CITRUS	CITRUS						
CC(C)=CCCC(C)CC=O (stereo not drawn) [CITRONELLAL]		CITRUS	CITRUS	CITRUS	CITRONELLA	CITRUS	CITRONELLA	CITRUS	CITRONELLA
CC(C)=CCCC(C)CCO (stereo not drawn) [CITRONELLOL]		FLORAL	FLORAL						
CC(C)=CCCC(C)CC#N (stereo not drawn) [CITRONELLYL NITRILE]	CITRUS	CITRUS	CITRUS	CITRUS	NITRILE	CITRUS	NITRILE	CITRUS	NITRILE
C=CC(C)CCCC(C)(C)O (stereo not drawn) [DIHYDROMYRCENOL]	CITRUS	CITRUS	CITRUS	CITRUS	METALLIC	CITRUS	METALLIC	CITRUS	METALLIC
CCOC(=O)CC(C)=O [ETHYL ACETOACETATE]	APPLE	FRUITY	FRUITY						
CCOC(=O)C(C)CC (stereo not drawn) [Ethyl 2-methylbutyrate]	APPLE	FRUITY	FRUITY						
CCC(C)C(=O)N(C)c1ccccc1 (stereo not drawn) [GARDAMIDE]	CITRUS	CITRUS	CITRUS	CITRUS	WOODY	CITRUS	WOODY	CITRUS	WOODY

SMILES	Odor Descriptor (Table 9)	Odor Descriptor (Table 11)	Odor Descriptor (Table 13)	Odor Descriptor 1 (Table 15)	Odor Descriptor 2 (Table 15)	Odor Descriptor 1 (Table 17)	Odor Descriptor 2 (Table 17)	Odor Descriptor 1 (Table 19)	Odor Descriptor 2 (Table 19)
CCCCCCOC(C)=O [HEXYL ACETATE]	FRUITY	FRUITY	FRUITY						
CCCCCCCCCCCC#N [LAURONITRILE]			CITRUS						
CC1=CC(C)C(C=O)CC1 (stereo not drawn) [LIGUSTRAL]		GREEN	GREEN	GREEN	LEAF	GREEN	LEAF	GREEN	LEAF
C=CC(C)(O)CCC=C(C)C (stereo not drawn) [LINALOOL, linalool]				LINALOOL		LINALOOL		LINALOOL	
CCCCCCCCCC=CC=O [MANDARIN ALDEHYDE]			CITRUS						
CC(CC=O)CCc1ccccc1 (stereo not drawn) [MEFRANAL]	CITRUS	CITRUS	CITRUS	ALDEHYDIC	CITRUS	ALDEHYDIC	CITRUS	ALDEHYDIC	CITRUS
CC(C)=CCCC(C)C=O (stereo not drawn) [MELONAL]				GREEN	ALDEHYDIC	GREEN	ALDEHYDIC	GREEN	ALDEHYDIC
CCCCCC1C(=O)CCC1CC(=O)OC (stereo not drawn) [METHYL DIHYDRO JASMONATE]	FLORAL	FLORAL	FLORAL					FLORAL	
CCCCCCC#CC(=O)OC [METHYL OCTINE CARBONATE]				GREEN	VIOLET	GREEN	VIOLET	GREEN	VIOLET
CCC(CC)C(=O)N(C)c1cccc(C)c1 [PARADISAMIDE]			CITRUS	CITRUS	FRUITY	CITRUS	FRUITY	CITRUS	FRUITY
CC1CC(C)(c2ccccc2)CO1 (stereo not drawn) [RHUBAFURAN]		CITRUS/GREEN	CITRUS	GREEN	GRAPEFRUIT	GREEN	GRAPEFRUIT	GREEN	GRAPEFRUIT
CC(C)CC1CCCC(C)(O)C1 (stereo not drawn) [ROSSITOL]	CITRUS	CITRUS	CITRUS	NUGUET	CITRUS	CITRUS	FLORAL	MUGUET	CITRUS
CC(=O)OC(C)c1ccccc1 (stereo not drawn) [STRALLYL ACETATE, STYRALLYL ACETATE]				GREEN	FRUITY	GREEN	FRUITY	GREEN	FRUITY
CCC(C)(O)CCCC(C)C (stereo not drawn) [TETRAHYDROLINALOOL]	FLORAL	FLORAL	FLORAL						
CC/C=C\CC/C=C/C=O [TRANS 2 CIS 6 NONADENAL, TRANS 2 CIS 6 NONADIENAL]				GREEN	CUCUMBER	GREEN	CUCUMBER	GREEN	CUCUMBER
CC/C=C\CC/C=C/CO [TRANS 2 CIS 6 NONADENOL, TRANS 2 CIS 6 NONADIENOL]				GREEN	CUCUMBER	GREEN	CUCUMBER	GREEN	CUCUMBER
CCCCCCCCCCC=CC#N [TRIDECEN 2 NITRILE]				NITRILE	CITRUS	NITRILE	CITRUS	NITRILE	CITRUS
CCC=C(C)C(O)CCCCC (stereo not drawn) [UNDECAVERTOL, 4-Methyl-3-decen-5-ol]				GREEN	FRUITY	GREEN	FRUITY	GREEN	FRUITY
C=C(C)[C@H]1CC=C(C)CC1 [d-LIMONINE, d-1-Methyl-4-isopropenyl-1-cyclohexene]	CITRUS	CITRUS	CITRUS	CITRUS	ORANGE	CITRUS	ORANGE	CITRUS	ORANGE

— US20100087351A1, “Perfumes for Linear Citrus Release in Rinse-Off Systems” (Quest International Services B.V., priority 2007, published 2010)
